# Results: article PMC7279496
# Results are given in words; binding and its absence hold for the method and conditions named. A result given as binding can be weak or reduced; the word gives no strength.
# Target: T1, recombinant Aim23p (yeast mitochondrial translation initiation factor 3) (S. cerevisiae) (UniProt P47015)
# T1 sequence: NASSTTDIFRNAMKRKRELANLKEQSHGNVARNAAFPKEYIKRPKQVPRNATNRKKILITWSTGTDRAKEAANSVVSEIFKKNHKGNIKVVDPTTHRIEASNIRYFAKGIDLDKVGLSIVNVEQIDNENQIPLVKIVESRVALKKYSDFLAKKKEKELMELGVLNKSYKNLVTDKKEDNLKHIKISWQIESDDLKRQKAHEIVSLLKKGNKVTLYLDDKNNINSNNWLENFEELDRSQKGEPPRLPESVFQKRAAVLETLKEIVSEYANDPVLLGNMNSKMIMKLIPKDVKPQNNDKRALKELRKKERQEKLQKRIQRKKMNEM
# Experiment: native gel or EMSA; recombinant proteins, alone or together, separated by non-denaturing PAGE with imidazole-HEPES buffer system, gel pH 7.4; increasing amounts of Pet111p added to Aim23p; bovine serum albumin present as competitor; both purified
substance,measurement,value
recombinant Pet111p (without mitochondrial targeting sequence) (S. cerevisiae),binding,binds
